{"source": "paper PMC10372682", "target": "NERCLIN-BirA* fusion protein (human)", "assay": "proximity labelling; BioID: NERCLIN-BirA* transiently expressed in 143B cells, biotin in the culture media for 24 h; biotinylated proteins extracted with streptavidin beads and analysed by mass spectrometry, four replicates; hits filtered against GFP-BirA*, AIF-BirA* and common matrix matches", "note": "Results are given in words; binding and its absence hold for the method and conditions named. In cells and extracts the contact can be indirect. Here binding means that the protein was enriched with, or labelled near, the bait; the list need not be complete. A no says only that the protein was not detected with the bait."}
{"binder": "GRPEL2 (protein, UniProt Q8TAA5 33-225) STATQRTAGEDCRSEDPPDELGPPLAERALRVKAVKLEKEVQDLTVRYQRAIADCENIRRRTQRCVEDAKIFGIQSFCKDLVEVADILEKTTECISEESEPEDQKLTLEKVFRGLLLLEAKLKSVFAKHGLEKLTPIGDKYDPHEHELICHVPAGVGVQPGTVALVRQDGYKLHGRTIRLARVEVAVESQRRL", "values": [{"measurement": "binding", "result": "no binding"}]}
